Reference: CN116041515A
These are yes or no findings as the source states them, for the method shown. Some results given as binding are weak or reduced against the parent protein; the word gives no strength. For part of these data: Sequences can lack the tags named with a protein.

Key:
[1] = target: T1, BAFF-R on K562-BAFF-R cells (UniProt Q96RJ3); assay: phage FACS on K562-BAFF-R cells
T1 sequence (looked up): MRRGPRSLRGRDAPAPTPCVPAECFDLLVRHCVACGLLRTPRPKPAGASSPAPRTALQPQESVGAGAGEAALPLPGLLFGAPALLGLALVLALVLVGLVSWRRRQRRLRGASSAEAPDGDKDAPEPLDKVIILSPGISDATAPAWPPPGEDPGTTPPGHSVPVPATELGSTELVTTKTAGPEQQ

[2] = target: T2, SB-human BAFF-R Protein, his tag, Bio, SinoBiological 11027-H27H-B (human) (UniProt Q96RJ3); assay: phage ELISA
T2 sequence (biotinylated, looked up): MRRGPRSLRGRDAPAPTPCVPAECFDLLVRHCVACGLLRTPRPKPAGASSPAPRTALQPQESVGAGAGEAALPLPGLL

[3] = target: T3, Acro-human BAFF-R Protein, his tag, ACRObiosystem BAFFR-H52H5 (human) (UniProt Q96RJ3); assay: phage ELISA
T3 sequence (looked up): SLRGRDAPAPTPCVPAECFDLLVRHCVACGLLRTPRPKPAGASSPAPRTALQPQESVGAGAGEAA

BAFF-R on NALM6 cells = target: T4, BAFF-R on NALM6 cells (UniProt Q96RJ3); assay: FACS on NALM6 cells with purified IgG-form antibody
T4 sequence (looked up): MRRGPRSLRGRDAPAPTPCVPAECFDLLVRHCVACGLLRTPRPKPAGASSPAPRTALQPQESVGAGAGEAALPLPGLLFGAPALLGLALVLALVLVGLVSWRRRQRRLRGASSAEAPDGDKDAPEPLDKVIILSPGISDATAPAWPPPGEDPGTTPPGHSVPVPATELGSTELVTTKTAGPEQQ

[4] = target: T5, Recombinant biotinylated Human BAFF-R Protein, Kactus BAF-HM40RB (human) (UniProt Q96RJ3); assay: ELISA with purified IgG-form antibody
T5 sequence (biotinylated, looked up): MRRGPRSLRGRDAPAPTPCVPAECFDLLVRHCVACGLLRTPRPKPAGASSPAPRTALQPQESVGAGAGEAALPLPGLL

[5] = target: T5, Recombinant biotinylated Human BAFF-R Protein, Kactus BAF-HM40RB (human); assay: BLI, IgG on the sensor, antigen 100 to 6.25 nM

Measured: binding

B1: Clone 10 (phage-displayed scFv monoclonal) (scFv)
scFv: QSALTQPASVSGSPGQSITISCTGTSSDVGGYNYVSWYQQHPGKAPKLMIYEVSNRPSGVSNRFSGSKSGNTASLTISGLQAEDEADYYCSSYTSSSTYVFGTGTKVTVLGSRGGGGSGGGGSGGGGSLEQITLKESGPTLVKPTQTLTLTCTFSGFSLSTSGVGVGWIRQPPGKALEWLALIYWDDDKRYSPSLKSRLTITKDTSKNQVVLTMTNMDPVDTATYYCARYAGQYSGMWPWDYWGQGTLVTVSS
binds: [1] | [2] | [3]

B2: Clone 10 IgG (Fc fusion, not shown: a dimerising Fc or GST)
chain: QSALTQPASVSGSPGQSITISCTGTSSDVGGYNYVSWYQQHPGKAPKLMIYEVSNRPSGVSNRFSGSKSGNTASLTISGLQAEDEADYYCSSYTSSSTYVFGTGTKVTVLGSRGGGGSGGGGSGGGGSLEQITLKESGPTLVKPTQTLTLTCTFSGFSLSTSGVGVGWIRQPPGKALEWLALIYWDDDKRYSPSLKSRLTITKDTSKNQVVLTMTNMDPVDTATYYCARYAGQYSGMWPWDYWGQGTLVTVSS
binds: BAFF-R on NALM6 cells | [4] | [5]
